Results reported in US9850383B2, “Uncharged pyrenyloxy sulfonamide dyes for conjugation with biomolecules” (Gene Tools, LLC, priority 2016, dated 2017).
At least one compound was matched to its structure with a doubt left.

Test: Excitation and emission spectrum (fluorescence)
Assay type: physicochemical
From the text: FIG. 1. Excitation and emission spectrum of pyrenyloxy sulfonamide (Compound 4a)
FIG. 2. Excitation and emission spectrum of Cascade Blue
FIG. 3. Excitation and emission spectrum of fluorescein
The core structure of the improved, reactive, hydrophilic, uncharged fluorophores is a new class of pyrenyloxy sulfonamide compounds. […] The novelty of this invention involves the substantial improvement of the properties of Cascade Blue, a currently available blue-fluorescent dye. The high polarity of anionic sulfonate of Cascade Blue results in the membrane-impermeability which can only be used extracellularly, a major disadvantage for many desirable applications. […] This resistance to photobleaching greatly enhances the utility of the dye for quantitative measurements and permits extended illumination time.
Obvious is the spectra region shorter than 500 nm which is particularly valuable to get away from interference where green fluorescent protein is present or, to carry out the applications requiring multiple dyes such as flow cytometry, DNA sequencing and multiparameter microscopy. […] This special feature increases the sensitivity of the fluorescence techniques where the emission signal can be maximized against the low background.

With `O=C1OC2(c3ccc(O)cc3Oc3cc(O)ccc32)c2ccccc21` [Fluorescein, fluorescein] the peak of emission was “about 514 nm”.
